# According to the supplement of paper PMC7125110:
# ± gives the standard error. Many of these values have a large error.
# B1: glmS ribozyme (parent)
# chain: AUAAAAGCGCCAGAACUACAGAAAUGUAGUUGACGAGGAGGAGGUUUAUCGAAUUUUCGGCGGAUGCCUCCAAA
# Variants of: B1
# Test: kcat; higher = faster cleavage; RNA array
# Settings: with glucosamine-6-phosphate
# In short: (§1)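 A hybridised Cy3 probe tracked barcoded ribozyme variants, transcribed in situ by E. coli RNA polymerase on sequenced MiSeq chips, at 37 °C. The variants received 40 μM to 10 mM glucosamine-6-phosphate in HEPES/KCl/Mg(OAc)2 buffer. kobs came from decay fits and kcat and KM from weighted Michaelis–Menten fits.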
row,Variant,kcat
1,AUAAAAGCGCCAGAAGUACAGAAAUGUAGUCGACGAGGAGGAGGUUUAUCGAAUUUUCGGCGGAUGCCUCCAAA [C16G U31C],0.000606 ± 0.00011 s⁻¹
2,AUAAAAGCGCCAGAACUACAGAAAUGUAAUUGACGAGGAGGAGGUUUAUCGAAUUUUCGGCGGAUGCCUCUAAA [G29A C71U],0.00647 ± 0.0063 s⁻¹
3,AUAAAAGCGCCAGAUCUACAGAAAUGUAGUUGACGAGGAGGAGGUUUAUCGAAUUGUCGGCGGAUGCCUCCAAA [A15U U56G],0.00786 ± 0.0027 s⁻¹
4,AUAAAAGCGCCAGAAUUACAGAAAUGUAGUUGACGAGGAGGAGGUUUAUCGAAAUUUCGGCGGAUGCCUCCAAA [C16U U54A],0.00549 ± 0.0031 s⁻¹
5,AUAAAAGCGCCAGAUCUACAGAAAUGUAGUUGACGAGGAGGAGGUUUAUCGAAUUUUUGGCGGAUGCCACCAAA [A15U C58U U69A],7.83e-05 ± 4.1e-05 s⁻¹
6,AUAAAAGCGCCAGAAGUACAGAAAUGUAGGUGACGAGGAGGAGGUUUAUGGAAUUUUCGGCGGAUGCCUCCAAA [C16G U30G C50G],9.89e-05 ± 5.4e-05 s⁻¹
7,AUAAAAGCGCCAGAACUAAAGAAAUGUAGUUGACGAGGAGGAGGUUUAUGGAAUUUUCGGCGGAUGCCUCCAAA [C19A C50G],5.8e-05 ± 4.1e-05 s⁻¹
8,AUAAAAGCGCCAGAAAUACAGAAAUGUAUUUGACGAGGAGGAGGUUUAUCGAAUUUUCGGCGGAUGCCUCCAAA [C16A G29U],0.0305 ± 0.016 s⁻¹
9,AUAAAAGCGCCAGAAUUACAGAAAUGUAGUUGACGAGGAGGAGGUUGAUCGAAUUUUCGGCGGAUGCCUCCAAA [C16U U47G],0.0015 ± 0.00083 s⁻¹
10,AUAAAAGCGCCAGAAGUACAGAAAUGUAGUUGACGAGGAGGAGGUUUAUCGAAGUUUCGGCGGAUGCCUCCAAA [C16G U54G],0.00297 ± 0.00074 s⁻¹
11,AUAAAAGCGCCAGAAUUACAGAAAUGUAGAUGACGAGGAGGAGGUUUAUCGAAUUUUCGGCGGAUGCCUCCAAA [C16U U30A],0.003 ± 0.00083 s⁻¹
12,AUAAAAGCGCCAGAAGUACAGAAAUGUAGUUGACGAGGAGGAGGCUUAUCGAAUUUUCGGCGGAUGCCUCCAAA [C16G U45C],0.0003 ± 7.1e-05 s⁻¹
13,AUAAAAGCGCCAGAACUACAUAAAUGUAGUAGACGAGGAGGAGGUUUAUCGAAUUUUCGGCGGAUGCCUCCAAA [G21U U31A],0.0242 ± 0.014 s⁻¹
14,AUAAAAGCGCCAGAAGUACAGAAAUGUAGAUGACGAGGAGGAGGUUUAUCGAAUUUUCGGCGGAUGCCUCCAAA [C16G U30A],0.000474 ± 6e-05 s⁻¹
15,AUAAAAGCGCCAGAACUACAGAAAUGUACUUCACGAGGAGGAGGUUUAUCGAAUUUUCGGCGGAUGCCUCCAAA [G29C G32C],0.000391 ± 0.0002 s⁻¹
16,AUAAAAGCGCCAGAGCUACAGAAAUGUAGUUGACGAGGAGGAGGUUUAUCGAAUUUUCGGCGGAUGCCUCGAAA [A15G C71G],0.0013 ± 0.00065 s⁻¹
17,AUAAAAGCGCCAGAAUUACAGAAAUGUAGUUGACGAGGAGGAUGUUUAUCGAAUUUUCGGCGGAUGCCUCCAAA [C16U G43U],4.2e-05 ± 1.9e-07 s⁻¹
18,AUAAAAGCGCCAGAUCUACAGAAAUGUAGUUGACGAGGAGGAGGUUUAUCGAAUUUUCGGCGGAUGCUUCCAAA [A15U C68U],0.000466 ± 3e-05 s⁻¹
19,AUAAAAGCGCCAGAAAUACAGAAAUGUAGUUGACGAGGAGGAGGUUUAUCGAAUUUUCGGCGGAUCCCUCCAAA [C16A G66C],6.9e-05 ± 1.7e-05 s⁻¹
20,AUAAAAGCGCCAGAACUACAGAAAUGUAAUUGACGAGGAGGAGGUUUAUCGAAUUUUCGGCGGAUGCCGCCAAA [G29A U69G],2.3e-05 ± 1.2e-05 s⁻¹
21,AUAAAAGCGCCAGAACUACAGAAAUGUAAUUGUCGAGGAGGAGGUUUAUCGAAUUUUCGGCGGAUGCCUCCAAA [G29A A33U],0.000174 ± 0.00013 s⁻¹

# Variants of: B1
# Test: KM; higher = weaker cofactor use; RNA array
# Settings: with glucosamine-6-phosphate
# In short: as §1
row,Variant,KM
1,AUAAAAGCGCCAGAAGUACAGAAAUGUAGUCGACGAGGAGGAGGUUUAUCGAAUUUUCGGCGGAUGCCUCCAAA [C16G U31C],3720 ± 980 µM
2,AUAAAAGCGCCAGAUCUACAGAAAUGUAGUUGACGAGGAGGAGGUUUAUCGAAUUGUCGGCGGAUGCCUCCAAA [A15U U56G],3290 ± 1500 µM
3,AUAAAAGCGCCAGAAUUACAGAAAUGUAGUUGACGAGGAGGAGGUUUAUCGAAAUUUCGGCGGAUGCCUCCAAA [C16U U54A],234 ± 210 µM
4,AUAAAAGCGCCAGAAAUACAGAAAUGUAUUUGACGAGGAGGAGGUUUAUCGAAUUUUCGGCGGAUGCCUCCAAA [C16A G29U],2180 ± 1500 µM
5,AUAAAAGCGCCAGAAGUACAGAAAUGUAGUUGACGAGGAGGAGGUUUAUCGAAGUUUCGGCGGAUGCCUCCAAA [C16G U54G],1080 ± 460 µM
6,AUAAAAGCGCCAGAAUUACAGAAAUGUAGAUGACGAGGAGGAGGUUUAUCGAAUUUUCGGCGGAUGCCUCCAAA [C16U U30A],2310 ± 910 µM
7,AUAAAAGCGCCAGAAGUACAGAAAUGUAGUUGACGAGGAGGAGGCUUAUCGAAUUUUCGGCGGAUGCCUCCAAA [C16G U45C],1810 ± 1100 µM
8,AUAAAAGCGCCAGAACUACAUAAAUGUAGUAGACGAGGAGGAGGUUUAUCGAAUUUUCGGCGGAUGCCUCCAAA [G21U U31A],2580 ± 1800 µM
9,AUAAAAGCGCCAGAAGUACAGAAAUGUAGAUGACGAGGAGGAGGUUUAUCGAAUUUUCGGCGGAUGCCUCCAAA [C16G U30A],1780 ± 370 µM
10,AUAAAAGCGCCAGAACUACAGAAAUGUACUUCACGAGGAGGAGGUUUAUCGAAUUUUCGGCGGAUGCCUCCAAA [G29C G32C],31100 ± 20000 µM
11,AUAAAAGCGCCAGAGCUACAGAAAUGUAGUUGACGAGGAGGAGGUUUAUCGAAUUUUCGGCGGAUGCCUCGAAA [A15G C71G],515 ± 360 µM
12,AUAAAAGCGCCAGAAUUACAGAAAUGUAGUUGACGAGGAGGAUGUUUAUCGAAUUUUCGGCGGAUGCCUCCAAA [C16U G43U],1250 ± 27 µM
13,AUAAAAGCGCCAGAUCUACAGAAAUGUAGUUGACGAGGAGGAGGUUUAUCGAAUUUUCGGCGGAUGCUUCCAAA [A15U C68U],1610 ± 210 µM
14,AUAAAAGCGCCAGAAAUACAGAAAUGUAGUUGACGAGGAGGAGGUUUAUCGAAUUUUCGGCGGAUCCCUCCAAA [C16A G66C],18700 ± 7000 µM
15,AUAAAAGCGCCAGAACUACAGAAAUGUAAUUGUCGAGGAGGAGGUUUAUCGAAUUUUCGGCGGAUGCCUCCAAA [G29A A33U],47800 ± 44000 µM

# Reprinted at random: 2 records from the list.
row,Variant,KM
7,AUAAAAGCGCCAGAAGUACAGAAAUGUAGUUGACGAGGAGGAGGCUUAUCGAAUUUUCGGCGGAUGCCUCCAAA [C16G U45C],1810 ± 1100 µM
2,AUAAAAGCGCCAGAUCUACAGAAAUGUAGUUGACGAGGAGGAGGUUUAUCGAAUUGUCGGCGGAUGCCUCCAAA [A15U U56G],3290 ± 1500 µM

# Variants of: B1
# Test: self-cleavage kobs at 160 uM GlcN6P; higher = faster cleavage; RNA array
# Settings: with glucosamine-6-phosphate
# In short: as §1
row,Variant,self-cleavage kobs at 160 uM GlcN6P
1,AUAAAAGCGCCAGAAGUACAGAAAUGUAGUCGACGAGGAGGAGGUUUAUCGAAUUUUCGGCGGAUGCCUCCAAA [C16G U31C],1.73e-05 ± 1.2e-05 s⁻¹
2,AUAAAAGCGCCAGAACUACAGAAAUGUAAUUGACGAGGAGGAGGUUUAUCGAAUUUUCGGCGGAUGCCGCCAAA [G29A U69G],5.03e-05 ± 3.4e-05 s⁻¹

# Variants of: B1
# Test: self-cleavage kobs at 640 uM GlcN6P; higher = faster cleavage; RNA array
# Settings: with glucosamine-6-phosphate
# In short: as §1
row,Variant,self-cleavage kobs at 640 uM GlcN6P
1,AUAAAAGCGCCAGAACUACAGAAAUGUAAUUGACGAGGAGGAGGUUUAUCGAAUUUUCGGCGGAUGCCGCCAAA [G29A U69G],3.99e-05 ± 2.9e-05 s⁻¹
